For at least one compound, name, drawing or mass did not settle the structure.
Tested on: SNL rats (mechanical allodynia)
Test: Antiallodynic effect (von Frey) in spinal nerve ligation (SNL) rats
Type: in vivo, rat
Details: 1 μg, intrathecal administration
Procedure: 3-1. Evaluation of In Vivo Efficacy
The antiallodynic effects (mechanical allodynia) were evaluated using rats according to a previously reported protocol. In order to evaluate the withdrawal threshold, rats (naive, SNL and CIPN) were placed on a plastic mesh floor of individual plastic cages. The rats were allowed to acclimate to the environment for 30 minutes and examined after intrathecal or intravenous administration to the caudal vein. The control group received the same volume of vehicle (intrathecal administration of saline or DMSO, intravenous administration of DMSO:PEG:PBS=1:6:3 v/v %) as the experimental groups. Evaluation of the mechanical withdrawal threshold was measured in responses to the application of calibrated von Frey filaments (Stoelting, Wood Dale, Ill., USA) to the hind paw of the rats through the holes on the mesh floor underneath the cage using the ‘up and down method’. […] The withdrawal threshold data for the von Frey filament test was calculated as % MPE (maximum possible effect) based on the following Calculation Equation: % MPE=[(Post-drug threshold−Post-injured baseline threshold)/(Cutoff threshold−post-injured baseline threshold)×100]. Dose-response data were analyzed using Scheffe's post hoc test and one-way analysis of variance (ANOVA).

COc1cc(C(C)C)c(Oc2cnc(N)nc2N)cc1I [AF353, reference compound]
antiallodynic efficacy, MPE %: 32*11%
